Measured values published in article PMC12799932, “Development of a VHH that inhibits the binding of neuronal pentraxin 2 to a postsynaptic glutamate receptor, AMPAR” (The Journal of Biological Chemistry, 2025).

Protein sequences, listed by entry. Tags and fused reporters are not part of them. Lines headed by an entry give the natural chain unless they say otherwise; changes in a name come on top.
UniProt P48058: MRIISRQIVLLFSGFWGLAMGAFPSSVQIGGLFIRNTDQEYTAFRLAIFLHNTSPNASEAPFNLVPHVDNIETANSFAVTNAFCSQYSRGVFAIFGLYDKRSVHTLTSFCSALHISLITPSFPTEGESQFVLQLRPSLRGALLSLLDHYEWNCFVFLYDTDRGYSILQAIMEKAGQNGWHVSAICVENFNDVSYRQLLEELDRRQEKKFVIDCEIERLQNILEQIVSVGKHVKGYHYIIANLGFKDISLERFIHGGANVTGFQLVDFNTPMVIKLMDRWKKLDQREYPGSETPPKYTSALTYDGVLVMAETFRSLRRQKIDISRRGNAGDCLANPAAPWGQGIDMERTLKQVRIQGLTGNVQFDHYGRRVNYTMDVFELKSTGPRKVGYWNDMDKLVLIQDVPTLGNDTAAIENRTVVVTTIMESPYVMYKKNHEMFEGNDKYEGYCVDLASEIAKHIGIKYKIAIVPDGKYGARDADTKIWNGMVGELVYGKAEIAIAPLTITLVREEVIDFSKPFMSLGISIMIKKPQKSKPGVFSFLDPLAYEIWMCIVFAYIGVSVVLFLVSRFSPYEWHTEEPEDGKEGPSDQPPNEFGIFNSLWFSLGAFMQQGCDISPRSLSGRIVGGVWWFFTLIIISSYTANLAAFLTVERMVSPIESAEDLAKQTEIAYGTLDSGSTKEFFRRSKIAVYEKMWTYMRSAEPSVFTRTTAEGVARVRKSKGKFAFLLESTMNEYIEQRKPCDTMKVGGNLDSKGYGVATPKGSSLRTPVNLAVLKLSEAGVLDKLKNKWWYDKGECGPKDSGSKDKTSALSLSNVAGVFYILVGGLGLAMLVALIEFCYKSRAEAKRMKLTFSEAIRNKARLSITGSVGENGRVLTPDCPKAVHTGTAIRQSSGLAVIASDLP

Biological target: GluA4 ATD (amino-terminal domain of human GluA4), recombinant (human) (UniProt P48058)
Experiment: SPR; competition; Biacore T200; GluA4 ATD (~800 RU) amine-coupled on CM5, 500 nM NP2 PTX mixed with 0-1000 nM VHH N1 as analyte; 10 mM Hepes-NaOH pH 7.4, 150 mM NaCl, 3 mM CaCl2, 0.005% Tween-20; both purified

binding: binds
B1: NP2 PTX (pentraxin domain of neuronal pentraxin 2) (domain or fragment, human)
chain: DAFKVSLPLRTNYLYGKIKKTLPELYAFTICLWLRSSASPGIGTPFSYAVPGQANEIVLIEWGNNPIELLINDKVAQLPLFVSDGKWHHICVTWTTRDGMWEAFQDGEKLGTGENLAPWHPIKPGGVLILGQEQDTVGGRFDATQAFVGELSQFNIWDRVLRAQEIVNIANCSTNMPGNIIPWVDNNVDVFGGASKWPVETCEERLLDL
notes: neuronal pentraxin 2 (NP2, Nptx2), human, pentraxin (PTX) domain; also called NP2 PTX WT; PTX domain of NP2; source: Expi293 cells, secreted, purified (Ni-NTA, SEC)

No constants are given. Whether binding was seen depends on the method and setting. A result given as binding can be weak or reduced; the word gives no strength.
